Results are given in words; binding and its absence hold for the method and conditions named. Some results given as binding are weak or reduced against the parent protein; the word gives no strength.
Assays:
[1] = target: T1, HMGB1 A box (amino acids 9-85 of the HMGB1 sequence) (human); test: ELISA, coated A box peptide
T1 sequence (peptide): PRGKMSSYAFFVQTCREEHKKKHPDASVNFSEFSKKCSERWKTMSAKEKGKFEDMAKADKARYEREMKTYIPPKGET

Amino acid sequences for entries named in this document (tags omitted). A change or cut given only in a name is not applied to a line headed by its entry. Residues count along the entry.
UniProt Q15109, residues 23-344: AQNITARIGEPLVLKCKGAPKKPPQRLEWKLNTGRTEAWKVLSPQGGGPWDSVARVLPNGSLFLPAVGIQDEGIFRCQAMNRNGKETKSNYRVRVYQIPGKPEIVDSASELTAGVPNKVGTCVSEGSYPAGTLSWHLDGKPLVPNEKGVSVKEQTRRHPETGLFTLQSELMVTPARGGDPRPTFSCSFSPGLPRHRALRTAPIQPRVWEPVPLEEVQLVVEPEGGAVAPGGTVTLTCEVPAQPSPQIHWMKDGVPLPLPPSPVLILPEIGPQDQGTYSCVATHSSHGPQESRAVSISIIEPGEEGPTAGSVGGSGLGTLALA

[2] = target: HMGB1 B box (amino acids 91-169 of the HMGB1 sequence) (human); test: ELISA, coated B box peptide
[3] = target: T1, HMGB1 A box (amino acids 9-85 of the HMGB1 sequence) (human); test: ELISA, coated A box peptide at 5 µg/ml
[4] = target: HMGB1 B box (amino acids 91-169 of the HMGB1 sequence) (human); test: ELISA, coated B box peptide at 5 µg/ml
[5] = target: recombinant rat HMGB1 (SEQ ID NO:12) (rat) (UniProt P63159); test: ELISA, coated recombinant rat HMGB1, anti-human IgG-HRP
[6] = target: recombinant rat HMGB1 (SEQ ID NO:12) (rat) (UniProt P63159); test: ELISA, coated recombinant rat HMGB1 at 3 µg/ml, anti-human IgG-HRP
[7] = target: T1, HMGB1 A box (amino acids 9-85 of the HMGB1 sequence) (human); test: ELISA on coated HMGB1 A box peptide (5 ug/ml), bound RAGE-Ig detected with anti-human IgG-HRP, absorbance 655 nm
[8] = target: HMGB1 B box (amino acids 91-169 of the HMGB1 sequence) (human); test: ELISA on coated HMGB1 B box peptide (5 ug/ml), bound RAGE-Ig detected with anti-human IgG-HRP, absorbance 655 nm
[9] = target: recombinant rat HMGB1 (SEQ ID NO:12) (rat) (UniProt P63159); test: ELISA on coated recombinant rat HMGB1 (3 ug/ml), bound RAGE-Ig detected with anti-human IgG-HRP, absorbance 655 nm
[10] = target: RAGE-Ig fusion protein (SEQ ID NO:6) (human); test: capture assay: plate coated with RAGE-Ig (5 ug/ml), lysate of freeze-thawed mouse fibroblasts added, detected with mouse anti-HMGB1 mAb 10D4
[11] = target: RAGE-Ig fusion protein (SEQ ID NO:6) (human); test: capture assay: plate coated with RAGE-Ig (5 ug/ml), recombinant HMGB1 added, detected with mouse anti-HMGB1 mAb 10D4, Meso Scale Discovery reader
[12] = target: RAGE-Ig fusion protein (SEQ ID NO:6) (human); test: competition ELISA, competitor against coated HMGB1 for RAGE-Ig
[13] = target: RAGE-Ig fusion protein (SEQ ID NO:6) (human); test: competition ELISA, competitor at 10 µM, RAGE-Ig at 25 nM, coated rat HMGB1
[14] = target: RAGE-Ig fusion protein (SEQ ID NO:6) (human); test: competition ELISA: 25 nM RAGE-Ig preincubated with 10 uM competitor, then on coated recombinant rat HMGB1; bound RAGE-Ig detected with anti-human IgG-HRP, OD 650 nm

Measured: binding

commercially-available recombinant human RAGE/Fc chimera (R&D Systems, Inc., Catalog No. 1145-RG) (from UniProt Q15109 23-344) (Fc fusion)
not listed: [10] | [11] | [12] | [13] | [14]
binds: all other assays above

native HMGB1 in lysates of freeze-thawed wildtype mouse fibroblasts (from UniProt P63158 1-215) (ligand)
binds: [10]

recombinant HMGB1 (Example 15, FIG. 16A) (from UniProt P63159 1-215) (ligand)
binds: [11]

recombinant rat HMGB1 (SEQ ID NO:12) (from UniProt P63159 1-215) (ligand)
binds: [12] | [13] | [14]

— patent US20060057679A1
